Measurements reported in paper PMC11279727, “Bioprospecting, Synergistic Antifungal and Toxicological Aspects of the Hydroxychalcones and Their Association with Azole Derivates against Candida spp. for Treating Vulvovaginal Candidiasis” (Pharmaceutics, 2024).

Test system: C33A cell line (uterine cervical carcinoma epithelium)
Assay: In vitro cytotoxicity (resazurin, 72 h)
Experimental: Cytotoxicity assays were performed on the C33A cell line (uterine cervical carcinoma epithelium) obtained from the ATCC (Manassas, VA, USA). 5 × 10^4 cells/well were added using RPMI medium with 10% fetal bovine serum into 96-well plates. Cells were incubated at 36.5 °C with 5% CO2 for 24 h to form a cell monolayer. 2-HC and 3′-HC were analyzed in range concentrations from 0.1–75 μg/mL. In combinations, 2-HC and 3′-HC were analyzed from 0.48–31.25 mg/L and 0.48–62.5 mg/L. Cells were exposed for 72 h, and after, cytotoxicity was assessed by adding 100 μL of resazurin (50 μM) and measured by a microplate reader at 570 nm–600 nm. A negative control with untreated cells (100% living cells) and a positive control (DMSO 40% to induce cell death) were also used. The results were evaluated in triplicate independent. […] Selective index (SI) was calculated using SI=IC50/MIC50 .

[1] = SI=IC50/MIC50, C33A vs C. albicans ATCC 90028
[2] = SI=IC50/MIC50, C33A vs C. krusei ATCC 6258
[3] = SI=IC50/MIC50, C33A vs C. tropicalis ATCC 750

| SMILES | SI [1] | SI [2] | SI [3] |
| --- | --- | --- | --- |
| O=C(/C=C/c1ccccc1)c1cccc(O)c1 [3′-HC, 3′-hydroxychalcone] | 0.76 | 1.52 | 1.52 |
| O=C(/C=C/c1ccccc1O)c1ccccc1 [2-HC, 2-hydroxychalcone] | 0.83 | 0.83 | 1.66 |
